In patent US20220010020A1 (Five Prime, published 2022):

How the values were obtained:
[1] = molecular target: FGFR2-IIIb (fibroblast growth factor receptor 2 IIIb splice form) (human); experiment: Biacore
[2] = molecular target: FGFR2-IIIb (fibroblast growth factor receptor 2 IIIb splice form) (human); experiment: Biacore and blocking ELISA

B1: anti-FGFR2-IIIb antibody (afucosylated, humanized IgG1 monoclonal antibody), control sample incubated without hydrogen peroxide (antibody, V domains shown)
VH: QVQLVQSGAEVKKPGSSVKVSCKASGYIFTTYNVHWVRQAPGQGLEWIGSIYPDNGDTSYNQNFKGRATITADKSTSTAYMELSSLRSEDTAVYYCARGDFAYWGQGTLVTVSS
VL: DIQMTQSPSSLSASVGDRVTITCKASQGVSNDVAWYQQKPGKAPKLLIYSASYRYTGVPSRFSGSGSGTDFTFTISSLQPEDIATYYCQQHSTTPYTFGQGTKLEIKR
notes: also called αFGFR2b; Sample 1
- binding [1]: binds

B2: anti-FGFR2-IIIb antibody incubated with 0.01% hydrogen peroxide overnight at room temperature (force oxidized) (antibody, human IgG1, kappa, V domains shown)
VH: QVQLVQSGAEVKKPGSSVKVSCKASGYIFTTYNVHWVRQAPGQGLEWIGSIYPDNGDTSYNQNFKGRATITADKSTSTAYMELSSLRSEDTAVYYCARGDFAYWGQGTLVTVSS
VL: DIQMTQSPSSLSASVGDRVTITCKASQGVSNDVAWYQQKPGKAPKLLIYSASYRYTGVPSRFSGSGSGTDFTFTISSLQPEDIATYYCQQHSTTPYTFGQGTKLEIKR
notes: Same antibody as m1 after peroxide treatment; also called +0.01% H2O2; 0.01% H2O2
- binding [2]: binds
- binding [1]: binds

B3: anti-FGFR2-IIIb antibody incubated with 0.1% hydrogen peroxide overnight at room temperature (force oxidized) (antibody, human IgG1, kappa, V domains shown)
VH: QVQLVQSGAEVKKPGSSVKVSCKASGYIFTTYNVHWVRQAPGQGLEWIGSIYPDNGDTSYNQNFKGRATITADKSTSTAYMELSSLRSEDTAVYYCARGDFAYWGQGTLVTVSS
VL: DIQMTQSPSSLSASVGDRVTITCKASQGVSNDVAWYQQKPGKAPKLLIYSASYRYTGVPSRFSGSGSGTDFTFTISSLQPEDIATYYCQQHSTTPYTFGQGTKLEIKR
notes: Same antibody as m1 after peroxide treatment; also called +0.1% H2O2; 0.1% H2O2
- binding [2]: binds
- binding [1]: binds

B4: anti-FGFR2-IIIb antibody incubated with 1.0% hydrogen peroxide overnight at room temperature (force oxidized) (antibody, human IgG1, kappa, V domains shown)
VH: QVQLVQSGAEVKKPGSSVKVSCKASGYIFTTYNVHWVRQAPGQGLEWIGSIYPDNGDTSYNQNFKGRATITADKSTSTAYMELSSLRSEDTAVYYCARGDFAYWGQGTLVTVSS
VL: DIQMTQSPSSLSASVGDRVTITCKASQGVSNDVAWYQQKPGKAPKLLIYSASYRYTGVPSRFSGSGSGTDFTFTISSLQPEDIATYYCQQHSTTPYTFGQGTKLEIKR
notes: Same antibody as m1 after peroxide treatment; also called +1.0% H2O2; 1.0% H2O2
- binding [2]: binds
- binding [1]: binds

Results are given in words; binding and its absence hold for the method and conditions named. Binding calls can cover weak binding; strength is not graded here.
